# Source: article PMC10269545
# The chains behind the UniProt entries cited, without tags or fusion partners.
# UniProt P40292: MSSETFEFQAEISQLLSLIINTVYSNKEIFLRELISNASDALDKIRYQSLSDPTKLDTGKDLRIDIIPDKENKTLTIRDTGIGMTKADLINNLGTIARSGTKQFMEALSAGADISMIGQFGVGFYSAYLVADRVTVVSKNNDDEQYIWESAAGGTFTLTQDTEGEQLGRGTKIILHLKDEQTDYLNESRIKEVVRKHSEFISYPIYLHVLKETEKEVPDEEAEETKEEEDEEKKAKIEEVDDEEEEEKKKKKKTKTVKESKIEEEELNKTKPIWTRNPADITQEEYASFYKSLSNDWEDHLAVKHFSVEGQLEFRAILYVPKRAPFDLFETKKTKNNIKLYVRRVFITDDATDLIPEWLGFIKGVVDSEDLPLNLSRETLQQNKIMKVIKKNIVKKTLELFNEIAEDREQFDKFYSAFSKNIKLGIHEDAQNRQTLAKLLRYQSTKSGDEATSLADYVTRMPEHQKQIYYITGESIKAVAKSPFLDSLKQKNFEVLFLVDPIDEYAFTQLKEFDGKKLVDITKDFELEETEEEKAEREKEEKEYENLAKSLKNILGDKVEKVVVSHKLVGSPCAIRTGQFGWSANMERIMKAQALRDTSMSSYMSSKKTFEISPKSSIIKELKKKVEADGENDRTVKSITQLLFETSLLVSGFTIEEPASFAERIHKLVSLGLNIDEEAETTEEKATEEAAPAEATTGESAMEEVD
# Results are given in words; binding and its absence hold for the method and conditions named. In cells and extracts the contact can be indirect. Binding can be weak; no strength is given.
# Molecular target: SdeA::GFP fusion protein (A. fumigatus Δ9-fatty acid desaturase SdeA with C-terminal GFP) (Aspergillus fumigatus) (UniProt B0YB43)
# Assay: co-IP; GFP-Trap agarose resin on extracts of the sdeA::GFP strain (wild-type strain as control); mycelia grown in MM (1% glucose) 24 h at 30°C, control at 30°C or heat shock at 48°C for 15, 30 and 60 min; blots with α-GFP and α-Hsp90
substance,measurement,value
A. fumigatus Hsp90 (from UniProt P40292 1-706),binding,binds
